This assay addresses T1, GFP-tagged intact human CD248 (hCD248: WT) (human) (UniProt Q9HCU0).
T1 sequence: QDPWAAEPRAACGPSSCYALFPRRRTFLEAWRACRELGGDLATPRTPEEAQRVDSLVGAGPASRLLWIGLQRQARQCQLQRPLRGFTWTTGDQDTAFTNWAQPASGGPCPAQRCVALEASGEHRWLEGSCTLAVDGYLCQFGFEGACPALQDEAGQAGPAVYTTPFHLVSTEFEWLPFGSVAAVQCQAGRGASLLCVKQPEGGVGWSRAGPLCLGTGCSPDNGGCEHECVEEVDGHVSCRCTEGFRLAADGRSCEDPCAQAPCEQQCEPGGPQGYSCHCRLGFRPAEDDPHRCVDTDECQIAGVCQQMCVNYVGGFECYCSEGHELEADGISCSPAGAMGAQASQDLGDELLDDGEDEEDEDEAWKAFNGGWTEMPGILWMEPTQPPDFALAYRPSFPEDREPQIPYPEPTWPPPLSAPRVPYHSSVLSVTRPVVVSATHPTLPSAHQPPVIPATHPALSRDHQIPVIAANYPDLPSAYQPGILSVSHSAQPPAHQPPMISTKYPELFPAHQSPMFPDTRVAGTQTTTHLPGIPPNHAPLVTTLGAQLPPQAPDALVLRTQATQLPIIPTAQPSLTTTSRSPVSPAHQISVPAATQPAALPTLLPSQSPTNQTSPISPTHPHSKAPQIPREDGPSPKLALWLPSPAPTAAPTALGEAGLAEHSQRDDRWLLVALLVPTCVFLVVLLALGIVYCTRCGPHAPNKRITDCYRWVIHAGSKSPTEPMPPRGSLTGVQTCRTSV
As to the kind of experiment: co-IP; HEK293T cells overexpressing GFP-tagged intact human CD248 with PDGFRβ or HA-tagged AT1; IP with anti-GFP antibodies, immunoblot for PDGFRβ or HA-tagged AT1. (Immunoblotting shows a protein as a band on a membrane.)

These are yes or no findings as the source states them, for the method shown. Binding seen in cells or lysates may run through a third protein. Some entries that bind do so weakly or less than the wild type. Where a sequence is shown, tags or fusion partners need not be part of it.

As to “PDGFRβ (from UniProt P09619 33-1106) (receptor)”, the binding result was “binds”.
On to “HA-tagged AT1 (from UniProt P30556 1-359) (receptor)”, for which the binding entry is “binds”.
